From PubChem BioAssay AID328 (DTP/NCI, 2004)
The list is a part of this screen's results and no random one: it is rich in T/C values a quarter to a half above the control, in often repeated tests (any T/C) and in doses without a T/C. Other doses and runs of a compound stand elsewhere. T/C is the treated group as % of the vehicle group. Some entries give survivors of the animals treated and no T/C: the source holds a T/C of zero for them, seemingly a mark for toxic or unscored doses. Some doses without a T/C left all or most animals alive at the check, yet need not have been tolerated: the source hardly ever lists a survival T/C far under the control, and the zero likely stands for such cases as well. Survivors were counted at the toxicity check, usually on the fifth day, unless a day is given; later deaths do not show. Schedule codes are those of the source, taken here to give the interval after Q, in days (D) or hours (H), and the number of doses after X. Some entries hold several experiments; their values stand side by side, smallest first. For survival time, the PubChem record calls one and a half times the control and up active, and a quarter to a half above the control has no call in these data; cut-offs in other NCI protocols can differ. Some T/C values are followed by the survivors on the day toxicity was checked, most often the fifth; where none is given, no animal had died by that day. Brackets with × give the number of equal values in this list.

Test system: BDF1 mice, P388 leukemia ip, median survival T/C
Assay: NCI In Vivo Anticancer Drug Screen. Data for tumor model P388 Leukemia (intraperitoneal) in B6D2F1 (BDF1) mice
Conditions: T/C endpoint: median survival time, higher T/C = longer survival
How it was run: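 T/C = treated-group survival ÷ vehicle-control survival; tumour transplanted into mice before dosing.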

[1] = dose: 50.0 mg/kg/injection, schedule: Q01DX005 (ip), vehicle: saline with Tween-80
[2] = dose: 50.0 mg/kg/injection, schedule: Q01DX009 (ip), vehicle: saline with Tween-80
[3] = dose: 50.0 mg/kg/injection, schedule: Q04DX002 (ip), vehicle: saline with Tween-80
[4] = dose: 50.0 mg/kg/injection, schedule: Q04DX003 (ip), vehicle: saline with Tween-80
[5] = dose: 100.0 mg/kg/injection, schedule: Q01DX001 (ip), vehicle: saline with Tween-80
[6] = dose: 100.0 mg/kg/injection, schedule: Q01DX005 (ip), vehicle: saline with Tween-80
[7] = dose: 100.0 mg/kg/injection, schedule: Q01DX009 (ip), vehicle: saline with Tween-80
[8] = dose: 100.0 mg/kg/injection, schedule: Q04DX002 (ip), vehicle: saline with Tween-80
[9] = dose: 100.0 mg/kg/injection, schedule: Q04DX003 (ip), vehicle: saline with Tween-80
[10] = dose: 200.0 mg/kg/injection, schedule: Q01DX001 (ip), vehicle: saline with Tween-80
[11] = dose: 200.0 mg/kg/injection, schedule: Q01DX005 (ip), vehicle: saline with Tween-80
[12] = dose: 200.0 mg/kg/injection, schedule: Q01DX009 (ip), vehicle: saline with Tween-80
[13] = dose: 200.0 mg/kg/injection, schedule: Q04DX002 (ip), vehicle: saline with Tween-80
[14] = dose: 200.0 mg/kg/injection, schedule: Q04DX003 (ip), vehicle: saline with Tween-80
[15] = dose: 400.0 mg/kg/injection, schedule: Q01DX001 (ip), vehicle: saline with Tween-80
[16] = dose: 400.0 mg/kg/injection, schedule: Q01DX005 (ip), vehicle: saline with Tween-80
[17] = dose: 400.0 mg/kg/injection, schedule: Q01DX009 (ip), vehicle: saline with Tween-80
[18] = dose: 400.0 mg/kg/injection, schedule: Q04DX002 (ip), vehicle: saline with Tween-80
[19] = dose: 400.0 mg/kg/injection, schedule: Q04DX003 (ip), vehicle: saline with Tween-80

With `CC/C(=C(/CC)c1ccc(O)cc1)c1ccc(O)cc1` the survivor count (dose: 25.0 mg/kg/injection, schedule: Q01DX010 (ip), vehicle: saline) was 6 of 6, the T/C (dose: 50.0 mg/kg/injection, schedule: Q01DX001 (ip), vehicle: saline with Tween-80) was 87, 88, 89, 90, 91, 92 (2×), 94, 95 (2×), 96 (3×), 97, 99, 100 (2×), 102 (2×), 103, 104 (2×), 105, 106, 106 [5 of 6 alive], 109, 110, 120 % of control and the T/C [1] was 88 [5 of 6 alive], 89 [2 of 2 alive], 90, 97 (2×), 98 (2×), 99 (2×), 100, 101 (2×), 102, 103 (2×), 105 (2×), 106, 107 (3×), 108 (2×), 109, 110, 113 (2×), 115, 119 (2×), 120, 125, 128, 132 % of control. The survivor count [1] was 3 of 3, the survivor count (dose: 50.0 mg/kg/injection, schedule: Q01DX009 (ip), vehicle: carboxymethylcellulose (CMC)) was 7 of 10 and the T/C [2] was 87, 88, 92, 93, 93 [5 of 6 alive], 94, 97 (3×), 97 [5 of 6 alive], 99 [2 of 3 alive], 100, 101 (2×), 102, 103, 104, 105, 106 (2×), 107, 109, 110 (2×), 111, 115 (3×), 123 (2×), 124, 131 % of control. The survivor count [2] was 3 of 3, the T/C [3] was 87 (2×), 88, 91 (3×), 94, 95, 96 (2×), 97 (2×), 98, 100 (2×), 100 [5 of 6 alive], 101, 102 (2×), 103 (2×), 106 (3×), 107, 108, 109 (2×), 113, 115, 116 % of control and the survivor count [3] was 3 of 3 and 6 of 6. For the same compound, the T/C [4] was 87, 90 (2×), 91 (2×), 94 (2×), 95, 96 (3×), 98 (2×), 99, 100 (2×), 101 (3×), 102 (2×), 103 (2×), 104, 105, 106 (2×), 108, 109, 111, 115, 118, 121 % of control, the survivor count [4] was 3 of 3 and 6 of 6 and the T/C [5] was 87, 89, 90, 90 [5 of 6 alive], 91 (4×), 92, 93, 94 (2×), 96, 97, 98, 100, 101 (4×), 102, 103, 104, 105, 107, 109 % of control. The survivor count [5] was 6 of 6, the T/C [6] was 89, 90, 93 (2×), 95 (2×), 97 (2×), 99 (2×), 100, 102, 103 (2×), 106, 107 (2×), 108, 109 [5 of 6 alive], 110 (3×), 111, 112, 114 (3×), 115 (2×), 117, 119, 123 (2×), 125 % of control and the survivor count [6] was 6 of 6. The T/C [7] was 87, 89, 94, 94 [5 of 6 alive], 95 (2×), 97, 99 (2×), 100 (2×), 100 [5 of 6 alive], 101, 103, 104 [5 of 6 alive], 106 (3×), 108, 110, 111, 112, 113, 118, 121, 122, 123 (2×), 128, 131 (2×), 134 % of control, the survivor count [7] was 3 of 3 and 6 of 6 and the T/C [8] was 87 (2×), 89, 91 (3×), 94 (2×), 95, 96, 97, 98, 100 (5×), 101 (2×), 102, 103, 106 (2×), 108, 109, 112 (3×), 119, 121, 125, 130 % of control. For the same compound, the survivor count [8] was 1 of 3 and 6 of 6, the T/C [9] was 87, 88 (2×), 92 (2×), 93 (2×), 94, 95, 96 (2×), 98 (2×), 99 (2×), 100 (2×), 101 (2×), 103 (2×), 104, 105 (4×), 108 (2×), 109, 110, 110 [5 of 6 alive], 111, 115, 118 % of control and the survivor count [9] was 3 of 3 and 6 of 6. For the same compound, the T/C [10] was 90, 91 (3×), 92, 92 [5 of 6 alive], 93, 94, 96, 97 (2×), 99, 101 (2×), 102, 103, 104, 105, 106, 107, 108 (2×), 110 [5 of 6 alive], 111, 116 (2×), 120 % of control, the survivor count [10] was 5 of 6 and the T/C [11] was 92, 94 (2×), 95, 97, 98 (4×), 99 [2 of 3 alive], 99 [5 of 6 alive], 100 (2×), 103 (2×), 105, 107, 108 (2×), 109 (2×), 110, 111, 115 [4 of 5 alive], 115 [5 of 6 alive], 119, 119 [5 of 6 alive], 121, 123, 128 [2 of 3 alive], 134, 146 % of control. The survivor count [11] was 3 of 6, 4 of 6, 3 of 3, the T/C [12] was 88 (2×), 90 [2 of 3 alive], 90 [5 of 6 alive], 94 (2×), 95 (2×), 97, 99, 101 (2×), 102, 105, 106, 106 [2 of 3 alive], 106 [5 of 6 alive], 109, 110 [5 of 6 alive], 111, 112 [5 of 6 alive], 113, 114, 117, 119 (2×), 121, 122 [5 of 6 alive], 123, 126 [5 of 6 alive], 131, 131 % of control [5 of 6 alive] and the survivor count [12] was 4 of 6 and 3 of 3. The T/C [13] was 87 (2×), 90, 91 [5 of 6 alive], 92, 93, 94 (2×), 94 [5 of 6 alive], 96, 97 (3×), 98 (2×), 99, 100, 100 [5 of 6 alive], 103 (2×), 106, 108, 109, 111, 112 (2×), 115 (2×), 118, 119, 122, 122 % of control [5 of 6 alive], the survivor count [13] was 3 of 3 and 6 of 6 and the T/C [14] was 86, 87, 90, 90 [5 of 6 alive], 91, 94, 95, 96, 97, 98 (2×), 99 (3×), 100 (2×), 103 (2×), 104, 105 (2×), 105 [5 of 6 alive], 106, 107 [5 of 6 alive], 109, 109 [5 of 6 alive], 112, 121 (2×), 123, 125 % of control. For the same compound, the survivor count [14] was 3 of 3 and 6 of 6, the T/C [15] was 87 [5 of 6 alive], 88, 89, 91 (2×), 92, 95 (2×), 95 [4 of 6 alive], 96, 100 (2×), 100 [5 of 6 alive], 101, 101 [5 of 6 alive], 102 [2 of 3 alive], 102 [5 of 6 alive] (2×), 103, 106, 108 [4 of 6 alive], 110 [2 of 3 alive], 117 % of control and the survivor count [15] was 1 of 6, 1 of 3, 2 of 6, 5 of 6. The T/C [16] was 91, 96 [4 of 6 alive], 98 [5 of 6 alive], 99, 100, 100 [4 of 6 alive], 100 [5 of 6 alive], 103 [5 of 6 alive], 104, 106, 109 [4 of 6 alive], 113, 114 [4 of 6 alive], 115 [5 of 6 alive], 116 [2 of 3 alive] (2×), 118 [5 of 6 alive], 119 [5 of 6 alive], 120 [2 of 3 alive], 131 % of control, the survivor count [16] was 0 of 3, 0 of 6, 1 of 6, 1 of 3, 3 of 6, 2 of 3 and the T/C (dose: 400.0 mg/kg/injection, schedule: Q01DX008 (ip), vehicle: saline with Tween-80) was 138 % of control [2 of 3 alive]. The survivor count (dose: 400.0 mg/kg/injection, schedule: Q01DX009 (ip), vehicle: carboxymethylcellulose (CMC)) was 10 of 10, the T/C [17] was 95, 97 [4 of 6 alive], 98 [2 of 3 alive], 99, 99 [4 of 6 alive], 106 [2 of 3 alive], 108, 113, 114, 135 % of control [4 of 6 alive] and the survivor count [17] was 0 of 3, 0 of 6, 1 of 6, 1 of 3, 2 of 6, 3 of 6, 2 of 3, 4 of 6, 5 of 6, 3 of 3, 6 of 6. The T/C [18] was 88 [4 of 6 alive], 94, 100 [5 of 6 alive], 102 [2 of 3 alive], 103 [4 of 6 alive], 103 [5 of 6 alive], 104, 105, 106, 107 (2×), 108, 109 (2×), 109 [2 of 3 alive], 111, 118 [5 of 6 alive], 119, 119 [5 of 6 alive], 122 [4 of 6 alive], 125 % of control [2 of 3 alive], the survivor count [18] was 0 of 3, 0 of 6, 1 of 3, 3 of 6, 2 of 3, 4 of 6, 5 of 6, 6 of 6 and the T/C [19] was 91 (2×), 92 [5 of 6 alive], 94, 94 [5 of 6 alive] (2×), 99, 100 (3×), 100 [5 of 6 alive], 102, 103, 104 (2×), 105, 107, 110, 114, 125, 135 % of control. The survivor count [19] was 0 of 3, 1 of 3, 2 of 6, 3 of 6, 2 of 3, 3 of 3, 6 of 6.
